# Results: the supplement of paper PMC6411743
# Sequences of proteins named here, by UniProt entry; tags and fusion partners are left off. A change or cut given only in a name is not applied to a line headed by its entry.
# UniProt P50336: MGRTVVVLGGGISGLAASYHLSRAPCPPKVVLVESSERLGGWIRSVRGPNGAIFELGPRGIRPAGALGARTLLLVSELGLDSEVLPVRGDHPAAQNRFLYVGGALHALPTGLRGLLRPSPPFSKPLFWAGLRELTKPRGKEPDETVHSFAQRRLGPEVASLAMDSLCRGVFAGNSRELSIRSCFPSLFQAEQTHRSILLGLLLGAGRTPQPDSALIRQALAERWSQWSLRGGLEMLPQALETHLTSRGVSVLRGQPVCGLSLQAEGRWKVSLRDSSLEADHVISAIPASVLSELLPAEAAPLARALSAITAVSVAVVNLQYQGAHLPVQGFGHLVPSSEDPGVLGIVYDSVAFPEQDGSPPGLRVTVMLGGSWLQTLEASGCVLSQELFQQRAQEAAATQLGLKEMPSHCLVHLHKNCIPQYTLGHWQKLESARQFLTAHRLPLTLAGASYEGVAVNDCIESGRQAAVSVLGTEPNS
# UniProt P51970, whole entry: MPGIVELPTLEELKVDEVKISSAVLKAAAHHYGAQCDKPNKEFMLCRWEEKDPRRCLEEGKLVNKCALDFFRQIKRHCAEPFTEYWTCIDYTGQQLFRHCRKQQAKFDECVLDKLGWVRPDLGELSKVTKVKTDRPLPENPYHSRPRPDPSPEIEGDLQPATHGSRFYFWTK
# UniProt P51572: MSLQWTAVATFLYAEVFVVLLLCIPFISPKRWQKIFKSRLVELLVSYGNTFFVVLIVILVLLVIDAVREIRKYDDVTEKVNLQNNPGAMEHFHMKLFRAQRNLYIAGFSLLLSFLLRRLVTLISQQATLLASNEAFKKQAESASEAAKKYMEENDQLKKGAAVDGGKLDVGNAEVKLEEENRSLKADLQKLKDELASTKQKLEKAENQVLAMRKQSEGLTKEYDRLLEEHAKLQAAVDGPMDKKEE
# UniProt P48723: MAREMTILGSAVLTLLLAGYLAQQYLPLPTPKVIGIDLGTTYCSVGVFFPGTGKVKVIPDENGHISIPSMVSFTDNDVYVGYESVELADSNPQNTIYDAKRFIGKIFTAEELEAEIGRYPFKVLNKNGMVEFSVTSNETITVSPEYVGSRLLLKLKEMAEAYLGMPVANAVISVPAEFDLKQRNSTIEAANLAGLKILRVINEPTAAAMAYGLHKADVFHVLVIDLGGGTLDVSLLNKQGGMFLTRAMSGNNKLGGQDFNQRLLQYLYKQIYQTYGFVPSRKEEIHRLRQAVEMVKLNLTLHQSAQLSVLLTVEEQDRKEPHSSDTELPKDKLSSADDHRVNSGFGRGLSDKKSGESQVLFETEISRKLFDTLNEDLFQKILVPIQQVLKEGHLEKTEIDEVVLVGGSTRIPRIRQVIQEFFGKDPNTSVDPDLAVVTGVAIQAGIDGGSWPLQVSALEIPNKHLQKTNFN
# UniProt P51151: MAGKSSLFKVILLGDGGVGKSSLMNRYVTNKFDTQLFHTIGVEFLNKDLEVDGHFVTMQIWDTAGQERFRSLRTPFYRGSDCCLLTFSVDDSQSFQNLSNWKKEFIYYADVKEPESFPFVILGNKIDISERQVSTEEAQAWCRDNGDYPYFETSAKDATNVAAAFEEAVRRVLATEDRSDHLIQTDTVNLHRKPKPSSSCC
# UniProt P50395: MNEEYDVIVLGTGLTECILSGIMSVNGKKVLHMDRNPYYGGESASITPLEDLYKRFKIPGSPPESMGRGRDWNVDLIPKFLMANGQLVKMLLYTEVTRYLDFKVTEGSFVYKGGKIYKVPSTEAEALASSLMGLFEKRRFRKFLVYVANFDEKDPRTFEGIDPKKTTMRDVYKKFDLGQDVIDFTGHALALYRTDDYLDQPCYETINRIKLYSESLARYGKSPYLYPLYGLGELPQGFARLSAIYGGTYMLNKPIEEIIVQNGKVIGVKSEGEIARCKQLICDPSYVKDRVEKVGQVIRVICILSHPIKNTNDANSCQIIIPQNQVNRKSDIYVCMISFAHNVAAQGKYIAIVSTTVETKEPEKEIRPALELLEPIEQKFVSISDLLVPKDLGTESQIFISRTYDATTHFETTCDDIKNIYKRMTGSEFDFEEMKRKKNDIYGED
# UniProt P51812, whole entry: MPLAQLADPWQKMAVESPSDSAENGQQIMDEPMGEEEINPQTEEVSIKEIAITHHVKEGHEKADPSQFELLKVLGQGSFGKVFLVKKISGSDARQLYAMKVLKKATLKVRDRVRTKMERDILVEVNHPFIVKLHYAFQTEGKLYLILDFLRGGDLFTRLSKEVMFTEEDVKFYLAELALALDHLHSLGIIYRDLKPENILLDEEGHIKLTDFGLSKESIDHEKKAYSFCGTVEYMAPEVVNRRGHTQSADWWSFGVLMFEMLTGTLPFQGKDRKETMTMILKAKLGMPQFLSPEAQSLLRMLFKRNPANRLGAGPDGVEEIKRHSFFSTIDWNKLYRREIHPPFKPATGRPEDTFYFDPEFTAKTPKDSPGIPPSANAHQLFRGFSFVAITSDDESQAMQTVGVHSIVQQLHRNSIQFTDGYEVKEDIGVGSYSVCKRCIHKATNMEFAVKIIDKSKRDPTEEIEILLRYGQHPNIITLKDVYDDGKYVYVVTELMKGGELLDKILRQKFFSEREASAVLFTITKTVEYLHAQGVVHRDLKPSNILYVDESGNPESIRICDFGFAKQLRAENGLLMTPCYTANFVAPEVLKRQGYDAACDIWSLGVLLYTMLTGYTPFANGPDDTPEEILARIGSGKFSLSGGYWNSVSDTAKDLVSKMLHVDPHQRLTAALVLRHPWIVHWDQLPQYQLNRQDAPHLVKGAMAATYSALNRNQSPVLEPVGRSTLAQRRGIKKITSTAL
# UniProt P49005: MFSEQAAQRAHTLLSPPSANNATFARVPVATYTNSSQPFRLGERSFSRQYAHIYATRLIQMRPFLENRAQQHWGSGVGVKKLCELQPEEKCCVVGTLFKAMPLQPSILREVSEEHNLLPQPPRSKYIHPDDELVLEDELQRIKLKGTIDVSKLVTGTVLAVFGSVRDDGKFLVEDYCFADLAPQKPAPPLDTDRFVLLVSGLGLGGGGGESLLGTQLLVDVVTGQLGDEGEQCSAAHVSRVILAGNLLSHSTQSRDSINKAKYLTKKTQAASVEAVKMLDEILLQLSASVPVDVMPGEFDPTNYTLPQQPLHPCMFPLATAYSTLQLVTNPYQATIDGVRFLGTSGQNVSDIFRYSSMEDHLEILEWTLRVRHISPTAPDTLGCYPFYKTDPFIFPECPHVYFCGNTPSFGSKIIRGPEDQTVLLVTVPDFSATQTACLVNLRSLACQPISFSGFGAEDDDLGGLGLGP
# UniProt P50454: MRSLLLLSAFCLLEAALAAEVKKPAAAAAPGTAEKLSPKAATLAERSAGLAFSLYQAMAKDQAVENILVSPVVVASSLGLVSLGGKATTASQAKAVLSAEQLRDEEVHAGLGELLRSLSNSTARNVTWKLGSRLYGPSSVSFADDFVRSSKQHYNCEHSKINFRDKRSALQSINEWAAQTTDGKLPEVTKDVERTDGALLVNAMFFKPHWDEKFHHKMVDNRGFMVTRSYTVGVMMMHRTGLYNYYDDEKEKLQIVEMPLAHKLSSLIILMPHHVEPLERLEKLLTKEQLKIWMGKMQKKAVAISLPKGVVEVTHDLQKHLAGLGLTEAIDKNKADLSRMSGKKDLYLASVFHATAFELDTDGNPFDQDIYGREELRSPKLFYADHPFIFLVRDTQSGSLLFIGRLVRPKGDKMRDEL
# UniProt P46100: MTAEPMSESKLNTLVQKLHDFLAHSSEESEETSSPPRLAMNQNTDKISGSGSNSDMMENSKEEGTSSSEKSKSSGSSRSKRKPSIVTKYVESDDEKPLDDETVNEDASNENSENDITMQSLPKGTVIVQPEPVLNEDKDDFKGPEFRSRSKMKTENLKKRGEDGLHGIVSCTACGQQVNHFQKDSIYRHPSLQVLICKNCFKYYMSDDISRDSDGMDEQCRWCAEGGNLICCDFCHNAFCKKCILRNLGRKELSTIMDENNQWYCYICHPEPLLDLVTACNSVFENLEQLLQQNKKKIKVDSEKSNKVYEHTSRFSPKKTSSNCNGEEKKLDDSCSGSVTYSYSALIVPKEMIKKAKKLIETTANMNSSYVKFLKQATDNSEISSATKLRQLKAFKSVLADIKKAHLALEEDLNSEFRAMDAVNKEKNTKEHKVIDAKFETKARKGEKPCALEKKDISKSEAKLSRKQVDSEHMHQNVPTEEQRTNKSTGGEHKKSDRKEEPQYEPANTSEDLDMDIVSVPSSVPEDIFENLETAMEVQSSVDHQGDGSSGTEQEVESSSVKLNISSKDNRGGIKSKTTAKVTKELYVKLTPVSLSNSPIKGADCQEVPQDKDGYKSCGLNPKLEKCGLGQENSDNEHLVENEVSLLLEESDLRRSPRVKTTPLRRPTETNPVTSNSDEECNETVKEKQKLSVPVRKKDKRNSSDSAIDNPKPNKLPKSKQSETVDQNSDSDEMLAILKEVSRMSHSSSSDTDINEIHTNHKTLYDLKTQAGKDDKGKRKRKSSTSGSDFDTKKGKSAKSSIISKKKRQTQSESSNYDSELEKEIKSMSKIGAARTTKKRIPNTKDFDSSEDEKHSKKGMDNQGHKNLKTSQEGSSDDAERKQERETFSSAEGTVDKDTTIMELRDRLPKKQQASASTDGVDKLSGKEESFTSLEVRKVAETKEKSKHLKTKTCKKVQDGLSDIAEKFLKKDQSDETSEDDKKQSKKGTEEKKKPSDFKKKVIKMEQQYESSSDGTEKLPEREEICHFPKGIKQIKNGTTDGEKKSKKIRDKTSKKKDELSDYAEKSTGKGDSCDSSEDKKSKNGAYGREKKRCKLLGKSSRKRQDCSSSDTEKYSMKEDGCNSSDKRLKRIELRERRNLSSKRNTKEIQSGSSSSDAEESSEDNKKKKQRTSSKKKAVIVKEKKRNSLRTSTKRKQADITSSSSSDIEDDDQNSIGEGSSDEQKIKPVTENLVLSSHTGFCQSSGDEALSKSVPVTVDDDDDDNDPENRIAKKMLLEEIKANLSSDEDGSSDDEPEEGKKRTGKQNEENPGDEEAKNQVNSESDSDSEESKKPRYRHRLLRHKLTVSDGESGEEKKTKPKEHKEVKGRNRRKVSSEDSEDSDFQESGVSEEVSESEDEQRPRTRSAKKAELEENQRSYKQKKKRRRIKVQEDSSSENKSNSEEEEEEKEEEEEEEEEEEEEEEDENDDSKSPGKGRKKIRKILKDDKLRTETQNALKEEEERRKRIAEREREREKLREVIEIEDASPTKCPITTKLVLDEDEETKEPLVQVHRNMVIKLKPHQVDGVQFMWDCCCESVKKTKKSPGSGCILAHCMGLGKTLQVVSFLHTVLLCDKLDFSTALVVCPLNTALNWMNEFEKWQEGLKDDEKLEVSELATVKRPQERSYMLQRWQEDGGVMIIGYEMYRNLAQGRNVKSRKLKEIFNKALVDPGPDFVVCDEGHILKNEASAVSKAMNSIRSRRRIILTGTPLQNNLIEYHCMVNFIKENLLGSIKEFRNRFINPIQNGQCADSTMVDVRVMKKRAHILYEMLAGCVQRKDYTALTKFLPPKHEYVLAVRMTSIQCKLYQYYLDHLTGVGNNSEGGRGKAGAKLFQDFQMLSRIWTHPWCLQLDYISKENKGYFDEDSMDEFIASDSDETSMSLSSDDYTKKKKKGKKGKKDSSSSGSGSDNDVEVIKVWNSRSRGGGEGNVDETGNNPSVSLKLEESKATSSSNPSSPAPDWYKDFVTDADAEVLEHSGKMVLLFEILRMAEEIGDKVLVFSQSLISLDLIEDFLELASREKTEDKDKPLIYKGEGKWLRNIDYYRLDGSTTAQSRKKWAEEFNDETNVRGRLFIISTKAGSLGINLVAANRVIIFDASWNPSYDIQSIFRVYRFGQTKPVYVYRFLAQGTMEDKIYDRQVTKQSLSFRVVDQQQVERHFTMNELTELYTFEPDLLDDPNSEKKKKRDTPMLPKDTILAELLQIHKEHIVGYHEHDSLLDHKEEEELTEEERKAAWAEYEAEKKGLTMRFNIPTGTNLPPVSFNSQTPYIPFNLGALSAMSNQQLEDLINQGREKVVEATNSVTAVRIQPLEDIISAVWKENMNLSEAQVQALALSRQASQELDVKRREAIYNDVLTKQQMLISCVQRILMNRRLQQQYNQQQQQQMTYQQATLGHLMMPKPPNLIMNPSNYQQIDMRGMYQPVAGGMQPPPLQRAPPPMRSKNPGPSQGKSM
# UniProt P42025, whole entry: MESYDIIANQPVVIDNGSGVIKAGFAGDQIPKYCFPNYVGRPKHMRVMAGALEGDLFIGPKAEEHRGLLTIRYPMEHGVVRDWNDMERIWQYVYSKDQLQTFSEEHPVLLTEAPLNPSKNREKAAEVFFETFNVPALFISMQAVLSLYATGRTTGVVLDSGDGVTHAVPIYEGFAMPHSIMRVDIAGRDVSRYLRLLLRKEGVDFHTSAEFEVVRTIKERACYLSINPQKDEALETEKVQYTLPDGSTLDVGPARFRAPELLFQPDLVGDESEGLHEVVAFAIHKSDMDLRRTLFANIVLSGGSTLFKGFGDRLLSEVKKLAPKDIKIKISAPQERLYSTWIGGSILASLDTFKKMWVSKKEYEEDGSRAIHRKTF
# ± gives the standard deviation of the averaged measurements. The list shows a part of the results, in another mix than the full data. Most entries show no effect beyond the scatter of the controls.
# Compound: Nc1ncnc2c1ncn2[C@@H]1O[C@H](COP(=O)(O)OP(=O)(O)NP(=O)(O)O)[C@@H](O)[C@H]1O [adenylyl imidodiphosphate]
# Experiment: NP40-soluble protein abundance relative to vehicle (solubility fold change) (ratio); higher = more soluble protein in presence of AMP-PNP
# Method in brief: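 Jurkat crude lysate prepared with a Dounce homogeniser was treated at eight concentrations spanning 0.1 to 10 mM, 10 min at room temperature then 3 min at 37 °C. Solubilisation with 0.8% NP40 and benzonase and ultracentrifugation preceded TMT labelling of the supernatant for LC-MS/MS. Fold change against the detergent-processed vehicle was determined per replicate from vsn-normalised intensities, across three independent experiments.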
Target,NP40-soluble protein abundance (concentration: 0.1mM),NP40-soluble protein abundance (concentration: 0.5mM)
DAP3 (UniProt P51398),1.05 ± 0.031,1.03 ± 0.056
PPOX (UniProt P50336),1.02 ± 0.032,1.012 ± 0.0063
TMED10 (UniProt P49755),1 ± 0.032,1.04 ± 0.061
EMD (UniProt P50402),0.961 ± 0.045,0.954 ± 0.047
DUSP3 (UniProt P51452),0.999 ± 0.036,1 ± 0.028
NDUFA8 (UniProt P51970),0.984 ± 0.036,1.01 ± 0.037
UniProt P55265 and related entries,1.04 ± 0.024,1.05 ± 0.028
UniProt P46934-4|H0Y9L1,1.04 ± 0.017,0.968 ± 0.054
UniProt P45985,0.976 ± 0.048,1 ± 0.028
GMPS (UniProt P49915),1 ± 0.013,0.993 ± 0.023
EIF2B2 (UniProt P49770),1.02 ± 0.055,0.932 ± 0.058
UniProt P52594 and related entries,0.998 ± 0.025,1.01 ± 0.024
RPL34 (UniProt P49207),1.03 ± 0.015,1.035 ± 0.0036
CLNS1A (UniProt P54105),0.992 ± 0.015,0.979 ± 0.047
UQCRFS1 (UniProt P47985),1.02 ± 0.042,1.04 ± 0.059
FXR2 (UniProt P51116),0.997 ± 0.043,0.994 ± 0.015
RPL29 (UniProt P47914),1 ± 0.011,1.04 ± 0.03
UniProt P45983-3|P45983-2,1.03 ± 0.047,1.01 ± 0.046
PSMB2 (UniProt P49721),1.06 ± 0.031,1 ± 0.03
UniProt P52209-2,0.979 ± 0.011,1.01 ± 0.029
LRPPRC (UniProt P42704),0.961 ± 0.065,0.937 ± 0.052

Target,NP40-soluble protein abundance (concentration: 0.1mM),NP40-soluble protein abundance (concentration: 0.5mM)
UniProt P51572 and related entries,0.972 ± 0.018,1.01 ± 0.045
CAPZA1 (UniProt P52907),0.9894 ± 0.0096,1 ± 0.038
HSPA13 (UniProt P48723),1.02 ± 0.062,0.994 ± 0.029
PMS2 (UniProt P54278),1.04 ± 0.036,1.06 ± 0.067
RAB9A (UniProt P51151),0.977 ± 0.015,0.997 ± 0.013
CCT6A (UniProt P40227),0.859 ± 0.27,1.11 ± 0.22
CAPZA2 (UniProt P47755),1 ± 0.012,1.01 ± 0.023
UniProt P50053 and related entries,1 ± 0.016,1 ± 0.036
UniProt P50395 and related entries,0.999 ± 0.037,1.01 ± 0.07
UniProt P54619 and related entries,1.06 ± 0.046,0.982 ± 0.13
SSR4 (UniProt P51571),0.984 ± 0.025,1.016 ± 0.0069
PSMD7 (UniProt P51665),1.01 ± 0.012,0.956 ± 0.065
FNTA (UniProt P49354),1 ± 0.049,0.989 ± 0.043
MTHFS (UniProt P49914),0.982 ± 0.018,0.977 ± 0.015
SMS (UniProt P52788),0.983 ± 0.015,0.999 ± 0.015
CAMLG (UniProt P49069),0.97 ± 0.018,0.992 ± 0.031
UniProt P43034 and related entries,1.01 ± 0.033,1.03 ± 0.03
UniProt P42331 and related entries,1.01 ± 0.025,0.983 ± 0.027
UniProt P51812,1.07 ± 0.038,0.996 ± 0.092
MTHFR (UniProt P42898),1.01 ± 0.042,1.03 ± 0.055
UniProt P43403 and related entries,1.04 ± 0.013,1.06 ± 0.025

Target,NP40-soluble protein abundance (concentration: 0.1mM),NP40-soluble protein abundance (concentration: 0.5mM)
UniProt P49005 and related entries,0.987 ± 0.034,0.978 ± 0.018
PIK3CG (UniProt P48736),0.985 ± 0.037,0.98 ± 0.062
SERPINH1 (UniProt P50454),0.98 ± 0.022,0.974 ± 0.031
UniProt P49336 and related entries,1 ± 0.047,1.02 ± 0.014
UniProt P46100 and related entries,0.963 ± 0.033,0.984 ± 0.044
ACTR1B (UniProt P42025),0.989 ± 0.017,1.01 ± 0.029
UniProt P52757 and related entries,1 ± 0.019,1.05 ± 0.0063
SEC24C (UniProt P53992),0.9933 ± 0.0099,0.99 ± 0.035
CENPF (UniProt P49454),0.998 ± 0.027,1 ± 0.046
UniProt P46020-2|A6NMN0 and related entries,0.99 ± 0.038,0.97 ± 0.032
UniProt P51809 and related entries,1.03 ± 0.042,1.01 ± 0.017
HINT1 (UniProt P49773),0.956 ± 0.018,0.969 ± 0.018
UniProt P52739 and related entries,1.01 ± 0.026,0.999 ± 0.029
UniProt P49674,0.989 ± 0.017,0.98 ± 0.031
CDC34 (UniProt P49427),1.01 ± 0.029,0.991 ± 0.057
ETV6 (UniProt P41212),1.0268 ± 0.00044,0.985 ± 0.042
VASP (UniProt P50552),0.983 ± 0.039,0.976 ± 0.045
UniProt P55036 and related entries,0.988 ± 0.0039,0.983 ± 0.023
P42166 and related entries (UniProt P42167+P42166),1.004 ± 0.01,1.03 ± 0.029

# Some of the entries above in another layout.
Target	NP40-soluble protein abundance (concentration: 0.1mM)	NP40-soluble protein abundance (concentration: 0.5mM)
NDUFA8 (UniProt P51970)	0.984 ± 0.036	1.01 ± 0.037
CAMLG (UniProt P49069)	0.97 ± 0.018	0.992 ± 0.031
UniProt P52739 and related entries	1.01 ± 0.026	0.999 ± 0.029
